In paper PMC9181014 (International Journal of Molecular Sciences, 2022):

Test: general procedure: Fmoc solid-phase peptide synthesis; Fmoc Rink amide MBHA resin (substitution 0.67 mmol/g); DIC/Oxyma
Details: whole synthesis, analytical RP-HPLC

In the case of “PEPTIDE1{[Suc].G.L.Q.R.M.V.L.V.D.L.K.G.G.Y.G.R.K.K.R.R.Q.R.R.R.[am]}$PEPTIDE1,PEPTIDE1,1:R3-12:R3$$$V2.0”, the “final HPLC purity” value is reported as 100.00%.

HELM strings list residues between dots; [ac] is acetyl, [am] amide, other brackets name non-standard units.
